# Assay results reported in the supplement of paper PMC8728848.
# Some of the results follow.
# B1: Intelectin-1a (Mus musculus) (protein)
# chain: AEWSHPQFEKAEENLDTNRWGNSFFSSLPRSCKEIKQEHTKAQDGLYFLRTKNGVIYQTFCDMTTAGGGWTLVASVHENNMRGKCTVGDRWSSQQGNRADYPEGDGNWANYNTFGSAEAATSDDYKNPGYFDIQAENLGIWHVPNKSPLHNWRKSSLLRYRTFTGFLQHLGHNLFGLYKKYPVKYGEGKCWTDNGPALPVVYDFGDARKTASYYSPSGQREFTAGYVQFRVFNNERAASALCAGVRVTGCNTEHHCIGGGGFFPEGNPVQCGDFASFDWDGYGTHNGYSSSRKITEAAVLLFYR
# Assays:
# Test in all cases: glycan array binding signal (z-score within array); higher = stronger binding
# Details in all cases: glycan notation: IUPAC condensed, linker removed
# [1] = biological target: Fuc(a1-2)Gal
# How it was run: (§1)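 Glycan array binding is given as a within-array Z-score, which can be read as non-binding when negative. The arrays, 3228 of them, came from the Consortium for Functional Glycomics database and were retained only where the protein sequence was available. Z-scores were averaged across arrays of the same protein sequence at different concentrations or buffers and across linkers.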
# [2] = biological target: Fuc(a1-2)Gal(b1-3)GalNAc
# How it was run: as §1
# [3] = biological target: Fuc(a1-2)Gal(b1-3)GalNAc(a1-3)[Fuc(a1-2)]Gal(b1-4)Glc
# How it was run: as §1
# [4] = biological target: Fuc(a1-2)Gal(b1-3)GalNAc(a1-3)[Fuc(a1-2)]Gal(b1-4)GlcNAc
# How it was run: as §1
# [5] = biological target: Fuc(a1-2)Gal(b1-3)GalNAc(b1-3)Gal
# How it was run: as §1
# [6] = biological target: Fuc(a1-2)Gal(b1-3)GalNAc(b1-3)Gal(a1-4)Gal(b1-4)Glc
# How it was run: as §1
# [7] = biological target: Fuc(a1-2)Gal(b1-3)GalNAc(b1-4)[Neu5Ac(a2-3)]Gal(b1-4)Glc
# How it was run: as §1
# [8] = biological target: Fuc(a1-2)Gal(b1-3)GlcNAc
# How it was run: as §1
# [9] = biological target: Fuc(a1-2)Gal(b1-3)GlcNAc(b1-2)Man(a1-3)[Fuc(a1-2)Gal(b1-3)GlcNAc(b1-2)Man(a1-6)]Man(b1-4)GlcNAc(b1-4)GlcNAc
# How it was run: as §1
# [10] = biological target: Fuc(a1-2)Gal(b1-3)GlcNAc(b1-2)Man(a1-3)[Fuc(a1-2)Gal(b1-3)GlcNAc(b1-2)Man(a1-6)]Man(b1-4)GlcNAc(b1-4)[Fuc(a1-6)]GlcNAc
# How it was run: as §1
# [11] = biological target: Fuc(a1-2)Gal(b1-3)GlcNAc(b1-3)Gal(b1-4)Glc
# How it was run: as §1
# [12] = biological target: Fuc(a1-2)Gal(b1-3)GlcNAc(b1-3)GalNAc
# How it was run: as §1
# [13] = biological target: Fuc(a1-2)Gal(b1-3)GlcNAc(b1-3)[Fuc(a1-2)Gal(b1-3)GlcNAc(b1-6)]GalNAc
# How it was run: as §1
# [14] = biological target: Fuc(a1-2)Gal(b1-3)GlcNAc(b1-3)[Fuc(a1-3)[Gal(b1-4)]GlcNAc(b1-6)]Gal(b1-4)Glc
# How it was run: as §1
# [15] = biological target: Fuc(a1-2)Gal(b1-3)GlcNAc(b1-3)[Gal(b1-4)GlcNAc(b1-6)]Gal(b1-4)Glc
# How it was run: as §1
# [16] = biological target: Fuc(a1-2)Gal(b1-3)GlcNAc(b1-3)[Neu5Ac(a2-6)Gal(b1-4)GlcNAc(b1-6)]Gal(b1-4)Glc
# How it was run: as §1
# [17] = biological target: Fuc(a1-2)Gal(b1-3)GlcNAc6S
# How it was run: as §1
# [18] = biological target: Fuc(a1-2)Gal(b1-3)[Fuc(a1-4)]GlcNAc
# How it was run: as §1
# [19] = biological target: Fuc(a1-2)Gal(b1-3)[Fuc(a1-4)]GlcNAc(b1-2)Man(a1-3)[Fuc(a1-2)Gal(b1-3)[Fuc(a1-4)]GlcNAc(b1-2)Man(a1-6)]Man(b1-4)GlcNAc(b1-4)GlcNAc
# How it was run: as §1
# [20] = biological target: Fuc(a1-2)Gal(b1-3)[Fuc(a1-4)]GlcNAc(b1-2)Man(a1-6)[Fuc(a1-2)Gal(b1-3)[Fuc(a1-4)]GlcNAc(b1-2)Man(a1-3)]Man(b1-4)GlcNAc(b1-4)[Fuc(a1-6)]GlcNAc
# How it was run: as §1
# [21] = biological target: Fuc(a1-2)Gal(b1-3)[Fuc(a1-4)]GlcNAc(b1-3)[Fuc(a1-3)[Gal(b1-4)]GlcNAc(b1-6)]Gal(b1-4)Glc
# How it was run: as §1
# [22] = biological target: Fuc(a1-2)Gal(b1-3)[Fuc(a1-4)]GlcNAc(b1-3)[Gal(b1-4)GlcNAc(b1-6)]Gal(b1-4)Glc
# How it was run: as §1
# [23] = biological target: Fuc(a1-2)Gal(b1-4)Glc
# How it was run: as §1
# [24] = biological target: Fuc(a1-2)Gal(b1-4)Glc6S
# How it was run: as §1
# [25] = biological target: Fuc(a1-2)Gal(b1-4)GlcNAc
# How it was run: as §1
# [26] = biological target: Fuc(a1-2)Gal(b1-4)GlcNAc(b1-2)Man
# How it was run: as §1
# [27] = biological target: Fuc(a1-2)Gal(b1-4)GlcNAc(b1-2)Man(a1-3)[Fuc(a1-2)Gal(b1-4)GlcNAc(b1-2)Man(a1-6)]Man(b1-4)GlcNAc(b1-4)GlcNAc
# How it was run: as §1
# [28] = biological target: Fuc(a1-2)Gal(b1-4)GlcNAc(b1-2)Man(a1-3)[Fuc(a1-2)Gal(b1-4)GlcNAc(b1-2)Man(a1-6)]Man(b1-4)GlcNAc(b1-4)[Fuc(a1-6)]GlcNAc
# How it was run: as §1
# [29] = biological target: Fuc(a1-2)Gal(b1-4)GlcNAc(b1-2)[Fuc(a1-2)Gal(b1-4)GlcNAc(b1-4)]Man(a1-3)[Fuc(a1-2)Gal(b1-4)GlcNAc(b1-2)Man(a1-6)]Man(b1-4)GlcNAc(b1-4)GlcNAc
# How it was run: as §1
# [30] = biological target: Fuc(a1-2)Gal(b1-4)GlcNAc(b1-3)Gal(b1-4)GlcNAc
# How it was run: as §1
# [31] = biological target: Fuc(a1-2)Gal(b1-4)GlcNAc(b1-3)Gal(b1-4)GlcNAc(b1-3)Gal(b1-4)GlcNAc
# How it was run: as §1
# [32] = biological target: Fuc(a1-2)Gal(b1-4)GlcNAc(b1-3)GalNAc
# How it was run: as §1
# [33] = biological target: Fuc(a1-2)Gal(b1-4)GlcNAc(b1-3)[Fuc(a1-2)Gal(b1-4)GlcNAc(b1-6)]GalNAc
# How it was run: as §1
# [34] = biological target: Fuc(a1-2)Gal(b1-4)GlcNAc(b1-6)GalNAc
# How it was run: as §1
# [35] = biological target: Fuc(a1-2)Gal(b1-4)GlcNAc6S
# How it was run: as §1
# [36] = biological target: Fuc(a1-2)Gal(b1-4)[Fuc(a1-3)]GlcNAc
# How it was run: as §1
# [37] = biological target: Fuc(a1-2)Gal(b1-4)[Fuc(a1-3)]GlcNAc(b1-2)Man(a1-3)[Fuc(a1-2)Gal(b1-4)[Fuc(a1-3)]GlcNAc(b1-2)Man(a1-6)]Man(b1-4)GlcNAc(b1-4)GlcNAc
# How it was run: as §1
binder,measurement,setting,value
B1,glycan array binding signal (z-score),[1],1.16
same,glycan array binding signal (z-score),[2],-0.164
same,glycan array binding signal (z-score),[3],-0.541
same,glycan array binding signal (z-score),[4],1.56
same,glycan array binding signal (z-score),[5],-0.52
same,glycan array binding signal (z-score),[6],-0.523
same,glycan array binding signal (z-score),[7],-0.417
same,glycan array binding signal (z-score),[8],-0.677
same,glycan array binding signal (z-score),[9],-0.541
same,glycan array binding signal (z-score),[10],-0.492
same,glycan array binding signal (z-score),[11],-0.806
same,glycan array binding signal (z-score),[12],2.92
same,glycan array binding signal (z-score),[13],-0.329
same,glycan array binding signal (z-score),[14],-0.544
same,glycan array binding signal (z-score),[15],-0.885
same,glycan array binding signal (z-score),[16],-0.683
same,glycan array binding signal (z-score),[17],0.871
same,glycan array binding signal (z-score),[18],0.218
same,glycan array binding signal (z-score),[19],2.9
same,glycan array binding signal (z-score),[20],0.304
same,glycan array binding signal (z-score),[21],1.02
same,glycan array binding signal (z-score),[22],0.035
same,glycan array binding signal (z-score),[23],-0.881
same,glycan array binding signal (z-score),[24],0.116
same,glycan array binding signal (z-score),[25],0.167
same,glycan array binding signal (z-score),[26],1.06
same,glycan array binding signal (z-score),[27],-0.329
same,glycan array binding signal (z-score),[28],-0.624
same,glycan array binding signal (z-score),[29],-0.206
same,glycan array binding signal (z-score),[30],-0.367
same,glycan array binding signal (z-score),[31],0.884
same,glycan array binding signal (z-score),[32],0.697
same,glycan array binding signal (z-score),[33],-0.517
same,glycan array binding signal (z-score),[34],-0.016
same,glycan array binding signal (z-score),[35],-0.569
same,glycan array binding signal (z-score),[36],-0.845
same,glycan array binding signal (z-score),[37],2.41
